# PubChem BioAssay AID1508600 (Functional Genomics Laboratory (NCATS/FGL), 2020)
# About 3,700 (7%) of roughly 53,000 sequences were called active.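 Rule for the calls: active = gene knockdowns whose robust z-score for IL-1 alpha signal is at least 2 or at most -2, so actives lie on both sides; inactive = the rest.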 Some of the results follow.
# Assay: Components of the Cytosolic LPS Sensing Pathway: Gene Identification via Genome-wide siRNA Screen;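 note: robust z of the log signal after scaling to non-targeting control siRNA wells of the plate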
# Settings: RAW264.7 macrophages, IL-1a HTRF, actives lie on both sides, screened at 100 nM (by protocol), cells primed 5 h with Pam3CSK4 first
# In short: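 RAW264.7; siRNA 100 nM final, RNAiMAX, 48h 37 degrees C; Pam3CSK4 5 h; LipidA + TransIT-TKO 24 h; IL-1a HTRF; CellTiter-Glo viability; robust z vs negative-control median.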
row,Sequence,z-score
1,GGCGAACUGUUCGAUUGCGTT against Vcpip1,inactive: -1.01
2,GGGAAUCAAUGAAAAUGUGTT against Pcdh8,inactive: -1.04
3,GGUCCUAUGGAAAAAGAAATT against Msr1,inactive: -0.324
4,GGUUUUCUUCAUUCUUUCCTT against Zfp512,inactive: 0.616
5,GCUGGUCUUCUCUAUCUUATT against Olfr744,inactive: 0.0651
6,GGACCCAAGAAGUUUUAUUTT against Zbbx,inactive: 1.3
7,GGACUUUGAUCUGGAGCCATT against C1rl,inactive: -0.826
8,UCCAUACAGCAUCCAGUAATT against Mup20,inactive: -0.937
9,CCACUGGACAGGAACAAAGTT against Rims1,inactive: -1.2
10,GGUACACAAAUGCUCGGGATT against Rnf130,inactive: 0.223
11,GGAACCUAACAGAGAAACATT against Prpsap2,inactive: -0.166
12,GCUUCUAGUCAACAUCCAGTT against Klf15,active: 2.07
13,GGAGAGAAAGAACUGGAAATT against Fam78a,inactive: 0.357
14,CCAAGGAGCAUUCUUUGGUTT against 1700024B05Rik,inactive: -0.0487
15,GGAUAUCCCAGACCCAUCATT against Prtg,inactive: -1.42
16,GCACAUUGAUGCUUAAACGTT against Stimate,inactive: 0.621
17,GGCUCAGAGUACUUAAAUATT against Agmo,inactive: -1.6
18,GGCUGUCUUCAUCUUAGAUTT against Copz2,active: -2.61
19,CCCUCCAUGGAAAUGACAUTT against Slit3,active: 2.4
20,UGACAUAUCUUAAAUGUGGTT against Tas2r121,inactive: -0.528
21,GGUUAAAGUGUAUUUACAGTT against Fkbp14,inactive: 0.124
22,CCCAUUUUGAAGUGCUACCTT against Cyp27b1,inactive: -0.24

row,Sequence,z-score
1,CGACGACAUCAUAAAUUUCTT against Rapgef1,inactive: 1.99
2,GGGAAUGAAAAGUCAAAAGTT against Stard7,inactive: -0.047
3,GGUCUAAAGUACAUCCACUTT against Mapk13,inactive: -0.939
4,GGAGAAUUUACCUCCUAUUTT against Rpap3,inactive: 0.436
5,GGUACAAACGUGUAGUAUCTT against Lrrc14,inactive: 0.689
6,GGUGAUCAACCUGUACAAGTT against Gga1,inactive: 1.15
7,GGUGAAUCCUUCGUGGACATT against Nat8,inactive: -1.08
8,GGGAUGCUGUAGAUGGAAUTT against Olfr978,inactive: 0.0466
9,GCACUUGACAAGCAACAGUTT against Jup,active: -2.3
10,GGUGAUAUUAUACAUUCACTT against Rnd1,inactive: -0.418
11,GGAGGCACAGAGAUUGAAGTT against Sry,inactive: 0.247
12,GGAAAAUGAUAGCAGACAUTT against Zfp810,inactive: -1.72
13,GGAACAUUUCUGGAUUGUUTT against Muc1,inactive: -0.503
14,GGAUGGAAGCACUGACUAUTT against Lyzl1,inactive: -1.5
15,GCUAGUCCAACUCAUCAUUTT against Olfr430,inactive: -0.128
16,CGGACUCAAGCUUGUGAAATT against Syt17,inactive: 0.782
17,CCUCAGAUCUUGACCCUGGTT against Lrrn4cl,inactive: -0.407
18,GCACAUUUUACCAUUGCUATT against Hcfc1,inactive: -0.176
19,CGAAUUGGAUAAUACCCAUTT against Tpte,inactive: 0.0431
20,GCACCUAUACAACCUCGUGTT against Nisch,inactive: 0.402
21,GCAUGAUCAGUCAGCACUATT against Nr1d2,inactive: -1.29
22,GCUGCCCUGAAGGAUAUACTT against Grn,inactive: 0.24

row,Sequence,z-score
1,GGGCAACAUUCUUCAGAAUTT against Defb5,inactive: 1.87
2,GGUUCUUUAAUGGGUUAUGTT against Tpd52l2,inactive: -0.0253
3,CGUGGAGCUACCAUAUAGGTT against Mob3b,inactive: 0.581
4,CCCUUACGACUUGGCUUUGTT against Atp6v0a1,inactive: -0.131
5,GGGAGAAGAUAUAAAAACUTT against Krt20,inactive: 1.52
6,GCUAACAAAGAUUCACCCATT against Aspn,inactive: -0.742
7,GCAGUACAUAGACAAGUUATT against Ccdc88c,inactive: -0.0122
8,GGGUGCAGUGUUGUUUAUATT against Septin7,inactive: -0.0489
9,GCGGUUCUUUUCAGAGCACTT against Fbxo21,inactive: 0.363
10,GUCAUAAUGAGUCAUAGAATT against Olfr149,inactive: -1.02
11,CCUACAAUGAUUUUCUCAUTT against Impdh2,inactive: 0.982
12,GGAAGAGUUACAGUUGAUUTT against Rcbtb2,inactive: -0.282
13,GGAGUAUUACCUGGUUAAGTT against Suv39h1,inactive: -1.18
14,GGCAUAGCUUGGAAUGGAATT against Npas2,inactive: -0.258
15,GGGUUCACAUGGCAUAGUCTT against Zfp1,inactive: -0.0137
16,GGGAAUGAUUAAGCUAGCCTT against Acvr1b,inactive: 1.22
17,GGUAAAGGUGGCUUUGAGATT against Olfr975,inactive: -0.919
18,GGUGAUCAUGGCAAGAUGGTT against Fgf3,inactive: -0.791
19,GGAGCACAUGUCCUACAUCTT against Wnt5b,inactive: -0.199
20,GCCAGUGUUCAACUCAUGCTT against Trmt1l,inactive: 1.04
21,GGUCUUCAGAAUCCUCAAUTT against Ap1g2,inactive: -0.4
22,GGACACUGCGCAAGACUUCTT against Trim35,inactive: 0.506

# Reprinted from the results shown (24 entries):
row,Sequence,z-score
22,CCCAUUUUGAAGUGCUACCTT against Cyp27b1,inactive: -0.24
1,CGACGACAUCAUAAAUUUCTT against Rapgef1,inactive: 1.99
2,GGGAAUGAAAAGUCAAAAGTT against Stard7,inactive: -0.047
3,GGUCUAAAGUACAUCCACUTT against Mapk13,inactive: -0.939
4,GGAGAAUUUACCUCCUAUUTT against Rpap3,inactive: 0.436
5,GGUACAAACGUGUAGUAUCTT against Lrrc14,inactive: 0.689
6,GGUGAUCAACCUGUACAAGTT against Gga1,inactive: 1.15
7,GGUGAAUCCUUCGUGGACATT against Nat8,inactive: -1.08
8,GGGAUGCUGUAGAUGGAAUTT against Olfr978,inactive: 0.0466
9,GCACUUGACAAGCAACAGUTT against Jup,active: -2.3
10,GGUGAUAUUAUACAUUCACTT against Rnd1,inactive: -0.418
11,GGAGGCACAGAGAUUGAAGTT against Sry,inactive: 0.247
12,GGAAAAUGAUAGCAGACAUTT against Zfp810,inactive: -1.72
13,GGAACAUUUCUGGAUUGUUTT against Muc1,inactive: -0.503
14,GGAUGGAAGCACUGACUAUTT against Lyzl1,inactive: -1.5
15,GCUAGUCCAACUCAUCAUUTT against Olfr430,inactive: -0.128
16,CGGACUCAAGCUUGUGAAATT against Syt17,inactive: 0.782
17,CCUCAGAUCUUGACCCUGGTT against Lrrn4cl,inactive: -0.407
18,GCACAUUUUACCAUUGCUATT against Hcfc1,inactive: -0.176
19,CGAAUUGGAUAAUACCCAUTT against Tpte,inactive: 0.0431
20,GCACCUAUACAACCUCGUGTT against Nisch,inactive: 0.402
21,GCAUGAUCAGUCAGCACUATT against Nr1d2,inactive: -1.29
22,GCUGCCCUGAAGGAUAUACTT against Grn,inactive: 0.24
1,GGGCAACAUUCUUCAGAAUTT against Defb5,inactive: 1.87

# The results go on.

row,Sequence,z-score
1,GGAAGUAUGGAAGUCAAGUTT against Defb9,inactive: 0.0197
2,GCAGUAACGAGGUUUUGAUTT against Rbm48,inactive: -1.43
3,GGAAAAUGUCCAUUACUUUTT against Acad9,inactive: 1.28
4,GGCACAUUCAUGCAAUAAATT against Ctla2a,inactive: -0.87
5,GGCCAUCUCCUUCAACUAUTT against Ugt2a1,inactive: 1.24
6,GCGGCCUGUGAGAGUUUAUTT against Pcyt1a,active: 3.4
7,GGUCAAGUCAAGAGUGAGATT against BC048562,inactive: 0.2
8,CCUUCGAUAAGAAUUACAATT against Rab34,inactive: 0.0182
9,GGCCAAAGUUUACCUUCUATT against Iars,inactive: -1.86
10,GGGUUCCAGAUACUUUCUUTT against Zmym3,inactive: -1.82
11,GGAGAUCUUUCACAUGACCTT against Hcn3,inactive: -0.573
12,GGUGAAGAGUGAUUUUAAUTT against Il10,inactive: 1.03
13,GGUUGUGUGUCUGUUUGGUTT against Olfr1012,inactive: 1.29
14,GAACUUUUUUUCUGUGAACTT against Olfr175,inactive: -1.58
15,GGAACAGGAGAAUGACAUCTT against D5Ertd579e,inactive: -1.25
16,GCCAUCUGGGUUUUGAUUGTT against AF067061,inactive: -0.233
17,GGAAGUGAGUCAGAGCUCATT against Cdc42ep3,inactive: 1.14
18,CCGCCGAUCUACUAGUGGUTT against Slc6a2,inactive: 0.46
19,CCUUUCAUACUUACAUCCUTT against Rxfp4,inactive: 1.47
20,GCUGGAAGGAGGAACCAAGTT against 1810037I17Rik,inactive: -0.138
21,GCUAUAUGUACCCUAGCCATT against H2aj,active: 2.26
22,CCGAAGCUCUGUUUUGAACTT against Hdac9,inactive: 0.118

row,Sequence,z-score
1,GCACGCACACUUAUGAUACTT against Meox2,inactive: 0.13
2,GGCUCAUUGGACAUAUAUGTT against Casp8ap2,inactive: -1.77
3,GCCGGAUUCAUUGAAAGCATT against Eif2ak3,inactive: -0.284
4,CCGAUUCUUAGAAAUGUUCTT against Olfr692,inactive: -0.791
5,CCUGAGAGUAUUCACCAGCTT against Fbp2,inactive: 0.572
6,GGAUCAUCAAAGACGACAUTT against Prss34,inactive: 0.499
7,GGUGACAAGAGGUUUUGCUTT against Idh3a,inactive: -1.31
8,GGUUGAGUUCCGAUCCCAUTT against Gip,inactive: 0.954
9,GGCAACAGCCCAGAAAUUCTT against Klhl31,inactive: -0.492
10,GCUGAUGGACAAAUUCCACTT against Rapgef1,inactive: 0.505
11,CCCGACGUAGGAUCUUUGATT against Ncdn,inactive: -1.36
12,GCCUCACUCAGCAAAAGGATT against Ttc9c,active: -2.09
13,GGAUCAGAGAAGGAAAAAATT against Hspa12a,inactive: -1.98
14,GGCUUGACCUGCGUCUUCATT against 1700001P01Rik,inactive: 0.736
15,GGAUUUUUCUUUUGAGCGATT against Vegfd,inactive: 0.0288
16,GCUCCAACUACAUUGACUATT against Olfr1410,inactive: -0.396
17,GGAAAGACAUGAUACUGUCTT against Nr1i3,inactive: 1.6
18,CGUGUACAAGACCAACAACTT against Scg2,inactive: 0.523
19,GACUUUCAAUACUGUGAUUTT against H2-M10.2,inactive: -1.66
